Experimental data from publication PMC9418182.
Results are given in words; binding and its absence hold for the method and conditions named. Binding seen in cells or lysates may run through a third protein. Some binding calls cover weakened binding; strength is not graded here. For part of these data: Sequences can lack the tags named with a protein.

T1: Flag-PERM1 (PGC-1/ERR-induced regulator in muscle 1) (mouse) (UniProt Q149B8)
T1 sequence: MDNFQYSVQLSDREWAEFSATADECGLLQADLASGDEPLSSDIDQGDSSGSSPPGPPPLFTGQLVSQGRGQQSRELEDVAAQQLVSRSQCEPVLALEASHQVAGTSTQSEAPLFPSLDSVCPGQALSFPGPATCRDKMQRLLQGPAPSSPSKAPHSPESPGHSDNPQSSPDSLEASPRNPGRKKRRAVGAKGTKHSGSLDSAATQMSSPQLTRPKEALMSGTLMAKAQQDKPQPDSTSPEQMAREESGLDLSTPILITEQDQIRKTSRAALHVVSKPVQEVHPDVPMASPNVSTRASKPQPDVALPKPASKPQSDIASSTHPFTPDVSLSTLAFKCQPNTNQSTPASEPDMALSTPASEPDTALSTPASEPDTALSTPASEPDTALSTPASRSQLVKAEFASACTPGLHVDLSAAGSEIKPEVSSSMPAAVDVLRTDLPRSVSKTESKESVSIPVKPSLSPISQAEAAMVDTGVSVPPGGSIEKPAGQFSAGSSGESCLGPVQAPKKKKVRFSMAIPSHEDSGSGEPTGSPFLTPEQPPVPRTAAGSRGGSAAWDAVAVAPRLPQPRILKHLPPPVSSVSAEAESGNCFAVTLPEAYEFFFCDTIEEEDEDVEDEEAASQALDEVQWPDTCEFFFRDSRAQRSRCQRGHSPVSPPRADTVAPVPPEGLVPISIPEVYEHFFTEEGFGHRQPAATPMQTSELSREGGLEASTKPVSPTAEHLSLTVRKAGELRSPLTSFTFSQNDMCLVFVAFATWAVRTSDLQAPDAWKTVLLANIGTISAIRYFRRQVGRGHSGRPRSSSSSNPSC

T2: PERM1 (endogenous, mouse heart) (mouse (endogenous in mouse heart)) (UniProt Q149B8)
T2 sequence: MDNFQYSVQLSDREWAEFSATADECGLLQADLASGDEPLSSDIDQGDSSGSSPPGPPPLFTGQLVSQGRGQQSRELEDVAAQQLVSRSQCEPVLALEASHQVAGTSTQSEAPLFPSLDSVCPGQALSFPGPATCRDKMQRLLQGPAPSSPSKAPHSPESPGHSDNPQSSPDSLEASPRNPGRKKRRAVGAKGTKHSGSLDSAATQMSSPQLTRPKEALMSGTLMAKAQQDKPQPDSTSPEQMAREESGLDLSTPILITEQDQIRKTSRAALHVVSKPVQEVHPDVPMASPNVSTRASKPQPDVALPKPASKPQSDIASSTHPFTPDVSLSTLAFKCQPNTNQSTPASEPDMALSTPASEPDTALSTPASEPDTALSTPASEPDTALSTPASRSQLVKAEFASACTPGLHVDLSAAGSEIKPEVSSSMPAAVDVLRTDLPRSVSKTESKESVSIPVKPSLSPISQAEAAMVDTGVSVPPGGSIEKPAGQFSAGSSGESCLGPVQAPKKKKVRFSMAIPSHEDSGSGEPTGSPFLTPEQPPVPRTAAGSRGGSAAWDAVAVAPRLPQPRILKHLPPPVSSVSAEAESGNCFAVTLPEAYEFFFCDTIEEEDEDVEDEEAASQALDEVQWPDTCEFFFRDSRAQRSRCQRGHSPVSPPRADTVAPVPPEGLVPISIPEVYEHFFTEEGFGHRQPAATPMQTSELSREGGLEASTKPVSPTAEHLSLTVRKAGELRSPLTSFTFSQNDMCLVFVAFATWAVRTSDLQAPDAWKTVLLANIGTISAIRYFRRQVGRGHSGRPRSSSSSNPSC

B1: PPARα (endogenous, neonatal rat ventricular cardiomyocytes) (protein, UniProt P37230 1-468)
chain: MVDTESPICPLSPLEADDLESPLSEEFLQEMGNIQEISQSLGEESSGSFSFADYQYLGSCPGSEGSVITDTLSPASSPSSVSCPAVPTSTDESPGNALNIECRICGDKASGYHYGVHACEGCKGFFRRTIRLKLAYDKCDRSCKIQKKNRNKCQYCRFHKCLSVGMSHNAIRFGRMPRSEKAKLKAEILTCEHDLKDSETADLKSLAKRIHEAYLKNFNMNKVKARVILAGKTSNNPPFVIHDMETLCMAEKTLVAKMVANGVENKEAEVRFFHCCQCMSVETVTELTEFAKAIPGFANLDLNDQVTLLKYGVYEAIFTMLSSLMNKDGMLIAYGNGFITREFLKNLRKPFCDIMEPKFDFAMKFNALELDDSDISLFVAAIICCGDRPGLLNIGYIEKLQEGIVHVLKLHLQSNHPDDTFLFPKLLQKMVDLRQLVTEHAQLVQVIKKTESDAALHPLLQEIYRDMY
B2: PGC-1α (endogenous, neonatal rat ventricular cardiomyocytes) (protein, UniProt Q9QYK2 1-796)
chain: MAWDMCSQDSVWSDIECAALVGEDQPLCPDLPELDLSELDVNDLDTDSFLGGLKWCSDQSEIISNQYNNEPANIFEKIDEENEANLLAVLTETLDSLPVDEDGLPSFDALTDGDVTTDNEASPSSMPDGTPPPQEAEEPSLLKKLLLAPANTQLSYNECSGLSTQNHANHTHRIRTNPAIVKTENSWSNKAKSICQQQKPQRRPCSELLKYLTTNDDPPHTKPTENRNSSRDKCASKKKSHTQPQSQHAQAKPTTLSLPLTPESPNDPKGSPFENKTIERTLSVELSGTAGLTPPTTPPHKANQDNPFKASPKLKPSCKTVVPPPTKRARYSECSGTQGSHSTKKGPEQSELYAQLSKSSVLSRGHEERKTKRPSLRLFGDHDYCQSVNSKTDILINISQELQDSRQLDFKDASCDWQGHICSSTDSSQCYLRETLEASKQVSPCSTRKQLQDQEIRAELNKHFGHPSQAVFDDKVDKTSELRDGNFSNEQFSKLPVFINSGLAMDGLFDDSEDENDKLSYPWDGTQSYSLFDVSPSCSSFNSPCRDSVSPPKSLFSQRPQRMRSRSRSFSRHRSCSRSPYSRSRSRSPGSRSSSRSCYYYESSHYRHRTHRNSPLYVRSRSRSPYSRRPRYDSYEANEHERLKRDEYRREYEKRESERAKQRERQKQKAIEERRVIYVGKIRPDTTRTELRDRFEVFGEIEECTVNLRDDGDSYGFITYRYTCDAFAALENGYTLRRSNETDFELYFCGRKQFFKSNYADLDSNSDDFDPASTKSKYDSLDFDSLLKEAQRSLRR
B3: PGC-1α (endogenous, mouse heart) (protein, UniProt O70343 1-797)
chain: MAWDMCSQDSVWSDIECAALVGEDQPLCPDLPELDLSELDVNDLDTDSFLGGLKWCSDQSEIISNQYNNEPANIFEKIDEENEANLLAVLTETLDSLPVDEDGLPSFDALTDGAVTTDNEASPSSMPDGTPPPQEAEEPSLLKKLLLAPANTQLSYNECSGLSTQNHAANHTHRIRTNPAIVKTENSWSNKAKSICQQQKPQRRPCSELLKYLTTNDDPPHTKPTENRNSSRDKCASKKKSHTQPQSQHAQAKPTTLSLPLTPESPNDPKGSPFENKTIERTLSVELSGTAGLTPPTTPPHKANQDNPFKASPKLKPSCKTVVPPPTKRARYSECSGTQGSHSTKKGPEQSELYAQLSKSSGLSRGHEERKTKRPSLRLFGDHDYCQSLNSKTDILINISQELQDSRQLDFKDASCDWQGHICSSTDSGQCYLRETLEASKQVSPCSTRKQLQDQEIRAELNKHFGHPCQAVFDDKSDKTSELRDGDFSNEQFSKLPVFINSGLAMDGLFDDSEDESDKLSYPWDGTQPYSLFDVSPSCSSFNSPCRDSVSPPKSLFSQRPQRMRSRSRSFSRHRSCSRSPYSRSRSRSPGSRSSSRSCYYYESSHYRHRTHRNSPLYVRSRSRSPYSRRPRYDSYEAYEHERLKRDEYRKEHEKRESERAKQRERQKQKAIEERRVIYVGKIRPDTTRTELRDRFEVFGEIEECTVNLRDDGDSYGFITYRYTCDAFAALENGYTLRRSNETDFELYFCGRKQFFKSNYADLDTNSDDFDPASTKSKYDSLDFDSLLKEAQRSLRR

How the values were obtained:
[1] = molecular target: T1, Flag-PERM1 (PGC-1/ERR-induced regulator in muscle 1) (mouse); assay: co-IP; neonatal rat ventricular cardiomyocytes transduced with Flag-PERM1 adenovirus for one day; precipitated with anti-Flag M2 affinity gel overnight at 4 °C; immunoblot for PPARα or PGC-1α
[2] = molecular target: T2, PERM1 (endogenous, mouse heart) (mouse (endogenous in mouse heart)); assay: co-IP; mouse heart lysate; precipitated with anti-PERM1 antibody or control IgG overnight at 4 °C, Protein A/G-Agarose; immunoblot for PGC-1α

Binder | binding [1] | binding [2]
B1 | binds | 
B2 | binds | 
B3 |  | binds
